Taken from: PubChem BioAssay AID686943 (Drosophila RNAi Screening Center, 2013)
Purpose: 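Knockdowns that increase or decrease active ERK after insulin receptor stimulation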 (primary screen). System: Drosophila S2R+ haemocyte-like cells expressing YFP-tagged ERK (Rolled). Knock-down reagent: long dsRNA against Drosophila genes. Challenge: insulin stimulation versus unstimulated cells; dose and duration not given. Read-out: 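Per-plate z-scores of phospho-ERK immunostaining normalised to YFP-tagged ERK, measured with and without insulin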. Direction: replicate 1, z-score of dpERK with insulin and replicate 2, z-score of dpERK with insulin: higher = more active ERK per ERK-YFP after insulin; replicate 1, z-score of dpERK under basal conditions: higher = more basal active ERK per ERK-YFP.
The screen tested about 23,000 reagents; below is a random part of those with a known target gene and a result. 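Extra replicates exist only for a retested subset of genes; insulin dose and duration not given; both raised and lowered dpERK matter.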 A plus sign joins genes that one reagent is predicted to hit. Further read-outs or replicates are left out here. Reagent sequences are not shown. Not stated in the record: the amount of reagent, the time to read-out.

Target gene | dsRNA | replicate 1, z-score of dpERK with insulin | replicate 2, z-score of dpERK with insulin | replicate 1, z-score of dpERK under basal conditions
CG12620 | DRSC02177 | 0.43 | 0.38 | 0.63
tank | DRSC00461 | 0.06 | 0.06 | -0.11
CG32407 | DRSC09789 | -0.87 | -0.06 | 0.74
CG15345 (retired record) | DRSC18030 | -0.03 | 0.48 | 0.41
CG15345 (retired record) | DRSC22712 | 0.23 | -0.21 | -0.51
CG11600 | DRSC14332 | -0.17 | -0.4 | -0.82
APC4 | DRSC18360 | 0.55 | -0.16 | 0.58
IFT46 | DRSC02462 | 0.38 | -0.28 | 1.12
CG15014 | DRSC08468 | -0.8 | -0.95 | -0.49
Gmer | DRSC04376 | -0.04 | 0.04 | 1.37
mal | DRSC20581 | 0.72 | -0.11 | -0.44
CG13243 | DRSC01920 | -0.64 | -0.93 | -0.74
Noc3 | DRSC12535 | -0.04 | 2.01 | 1.79
Xpc | DRSC07654 | -0.05 | 0.65 | 1.06
Obp51a | DRSC22412 | -0.41 | 0.81 | -0.5
Arp1 | DRSC14118 | -0.31 | -0.38 | -0.05
Bmcp | DRSC10808 | 0.06 | -0.03 | -0.2
CG11413 + CG4622 | DRSC04109 | -0.28 | -0.56 | -0.65
vrs | DRSC15832 | 0.07 | 1.05 | 0.15
Arc1 | DRSC06159 | -3.86 | -4.23 | -1.44
CG15545 | DRSC15083 | 0.59 | -0.14 | -0.05
yellow-c + CIAPIN1 | DRSC01898 | 0.21 | 0.23 | 0.52
CG14445 | DRSC17938 | -0.14 | -0.84 | 1.37
